Data published in patent EP4745153A1 (Jiangsu Hengrui Pharmaceuticals Co., Ltd., priority 2023, dated 2025).

assay: general procedure: Fmoc solid-phase peptide synthesis; Rink-amide MBHA resin, 0.54 mmole/g; HATU / 4-methylmorpholine; settings: whole synthesis, analytical ultra-high performance liquid chromatography and LC/MS

Substance	final HPLC purity [%]
PEPTIDE1{H.[Aib].H.G.T.F.T.S.D.L.S.I.L.L.E.K.K.A.A.Q.E.F.V.E.W.L.L.A.[dE].G.P.S.S.G.A.P.P.P.S.[am]}|PEPTIDE2{[DA18].[gGlu].[OEG].[OEG]}$PEPTIDE2,PEPTIDE1,4:R2-16:R3$$$V2.0	91.68
PEPTIDE1{H.[Aib].H.G.T.F.T.S.D.L.S.I.L.L.E.K.K.A.A.[Ac3c].E.F.V.E.W.L.L.A.[dE].G.P.S.S.G.A.P.P.P.S.[am]}|PEPTIDE2{[DA18].[gGlu].[OEG].[OEG]}$PEPTIDE2,PEPTIDE1,4:R2-16:R3$$$V2.0	90.58
PEPTIDE1{H.[Aib].H.G.T.F.T.S.D.L.S.I.L.L.E.K.K.A.A.[Ac4c].E.F.V.E.W.L.L.A.[dE].G.P.S.S.G.A.P.P.P.S.[am]}|PEPTIDE2{[DA18].[gGlu].[OEG].[OEG]}$PEPTIDE2,PEPTIDE1,4:R2-16:R3$$$V2.0	88.49
PEPTIDE1{H.[Aib].H.G.T.F.T.S.D.L.S.I.L.L.E.K.Q.A.A.[Ac3c].E.F.V.E.W.L.L.A.[dE].G.P.S.S.G.A.P.P.P.S.[am]}|PEPTIDE2{[DA18].[gGlu].[OEG].[OEG]}$PEPTIDE2,PEPTIDE1,4:R2-16:R3$$$V2.0	93.74
PEPTIDE1{H.[Aib].H.G.T.F.T.S.D.L.S.I.L.L.E.K.Q.A.A.[Ac4c].E.F.V.E.W.L.L.A.[dE].G.P.S.S.G.A.P.P.P.S.[am]}|PEPTIDE2{[DA18].[gGlu].[OEG].[OEG]}$PEPTIDE2,PEPTIDE1,4:R2-16:R3$$$V2.0	94.81
PEPTIDE1{H.[Aib].H.G.T.F.T.S.D.Y.S.I.L.L.E.K.K.A.A.Q.E.F.V.E.W.L.L.A.G.G.P.S.S.G.A.P.P.P.S.[am]}|PEPTIDE2{[DA18].[gGlu].[OEG].[OEG]}$PEPTIDE2,PEPTIDE1,4:R2-16:R3$$$V2.0	98.03
PEPTIDE1{H.[Aib].H.G.T.F.T.S.D.Y.S.I.L.L.E.K.K.A.A.Q.E.F.V.E.W.L.L.A.[dE].G.P.S.S.G.A.P.P.P.S.[am]}|PEPTIDE2{[DA18].[gGlu].[OEG].[OEG]}$PEPTIDE2,PEPTIDE1,4:R2-16:R3$$$V2.0	95.15
PEPTIDE1{H.[Aib].H.G.T.F.T.S.D.Y.S.I.L.L.E.K.K.A.A.[Iva].E.F.V.E.W.L.L.A.G.G.P.S.S.G.A.P.P.P.S.[am]}|PEPTIDE2{[DA18].[gGlu].[OEG].[OEG]}$PEPTIDE2,PEPTIDE1,4:R2-16:R3$$$V2.0	92.44
PEPTIDE1{H.[Aib].H.G.T.F.T.S.D.Y.S.I.L.L.E.K.Q.A.A.Q.E.F.V.E.W.L.L.A.G.G.P.S.S.G.A.P.P.P.S.[am]}|PEPTIDE2{[DA18].[gGlu].[OEG].[OEG]}$PEPTIDE2,PEPTIDE1,4:R2-16:R3$$$V2.0	93.06
PEPTIDE1{H.[Aib].H.G.T.F.T.S.D.Y.S.I.L.L.E.K.Q.A.A.Q.E.F.V.E.W.L.L.A.[dE].G.P.S.S.G.A.P.P.P.S.[am]}|PEPTIDE2{[DA18].[gGlu].[OEG].[OEG]}$PEPTIDE2,PEPTIDE1,4:R2-16:R3$$$V2.0	88.34
PEPTIDE1{H.[Aib].H.G.T.F.T.S.D.Y.S.I.L.L.E.K.Q.A.A.[Ac3c].E.F.V.E.W.L.L.A.[dE].G.P.S.S.G.A.P.P.P.S.[am]}|PEPTIDE2{[DA18].[gGlu].[OEG].[OEG]}$PEPTIDE2,PEPTIDE1,4:R2-16:R3$$$V2.0	92.76
PEPTIDE1{H.[Aib].H.G.T.F.T.S.D.Y.S.I.L.L.E.K.Q.A.A.[Ac4c].E.F.V.E.W.L.L.A.[dE].G.P.S.S.G.A.P.P.P.S.[am]}|PEPTIDE2{[DA18].[gGlu].[OEG].[OEG]}$PEPTIDE2,PEPTIDE1,4:R2-16:R3$$$V2.0	91.27
PEPTIDE1{H.[Aib].H.G.T.F.T.S.D.Y.S.K.Y.L.E.K.K.[Aib].A.Q.E.F.V.E.W.L.L.A.G.G.P.S.S.G.A.P.P.P.S.[am]}|PEPTIDE2{[DA18].[gGlu].[OEG].[OEG]}$PEPTIDE2,PEPTIDE1,4:R2-16:R3$$$V2.0	96.69
PEPTIDE1{H.[Aib].Q.G.T.F.T.S.D.Y.S.I.L.L.E.K.K.A.A.Q.E.F.V.E.W.L.L.A.G.G.P.S.S.G.A.P.P.P.S.[am]}|PEPTIDE2{[DA18].[gGlu].[OEG].[OEG]}$PEPTIDE2,PEPTIDE1,4:R2-16:R3$$$V2.0	96.53

Some peptides are written in HELM: one residue between dots, names in brackets for other building blocks, links after the first $.
